Assay results as given in patent US4444754A, “Derivatives of clavulanic acid, a process for their preparation and their use” (Beecham Group Limited, priority 1978, dated 1984).

System: E. coli JT39 (Rtem)
Assay: in vitro MIC of ampicillin with and without the compound (synergy)
Type: cell-based
Details: Escherichia coli, read-out: in vitro MIC of ampicillin alone

## CC1(C)S[C@@H]2[C@H](NC(=O)[C@H](N)c3ccccc3)C(=O)N2[C@H]1C(=O)O [ampicillin]
  MIC: 2000 µg/mL
